The supplement of paper PMC5949888
Most values lie at the floor of the assay. Slopes are relative: functional sequences can read slightly below zero.

Each substance was assayed on Saccharomyces cerevisiae PS128 hsf1 delta, HSF1(1-493) fusion (assay: growth estimate (transactivation domain function in HSF1 fusion, heat-shock survival) (a.u. (slope of normalised read count over time)); higher = stronger growth at 37°C, i.e. more transactivation activity). Settings: library: random library.
Protocol: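 Random 60-nt DNA library encoding peptides of up to 20 aa, fused to the C-terminus of yeast HSF1 residues 1-493 (C-terminal TAD deleted) and expressed from the native HSF1 promoter on a CEN plasmid in hsf1-deleted S. cerevisiae PS128. Cells were selected at 37°C on -trp 5-FOA plates for 0, 2, 4, 6 and 8 days and amplicons were sequenced. Growth estimate is the slope of a robust linear fit of total-sum-normalised read counts (normalised to the first time point) over time, using at least 2 replicates. Sequences are classed functional (TAD activity) above a threshold of -0.13, set from stop-codon control sequences.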
Work on IIH yielded a growth estimate of under -0.25. Substance LPLSALGTMV has a growth estimate of under -0.25. ESQVRCHLKTASLIPNDS gave a growth estimate of under -0.25. CKRRCD gave a growth estimate of under -0.25. With VTLLSGSASATSDQPA the growth estimate was under -0.25. In the case of SLGALRHCGSKGHWLHATQS, the growth estimate is reported as under -0.25. With YVRKQRTVLGGVAWAFAH the growth estimate was under -0.25. In the case of AIDEVLRMTRCSPSP, the growth estimate is reported as under -0.25. SRRRWWGPRHCFCVRKAELH was tested, and the growth estimate was under -0.25. Work on NVLDPHMDGLANN yielded a growth estimate of under -0.25. ISRV gave a growth estimate of under -0.25. TQAGASVSNDTSYSK showed a growth estimate of under -0.25. LPPELKLYGFVLIRGIRSCV was tested, and the growth estimate was under -0.25. Substance GPGYYYFAK has a growth estimate of under -0.25. For LVWEDFAYQRLLSSGRFN, the growth estimate was under -0.25. GGVCKWIALLEIDPDVR gave a growth estimate of under -0.25. QTTAVSTVVDPWRMPGRITI showed a growth estimate of under -0.25. LDTTPLRAPVCHGMDPVCYG was tested, and the growth estimate was under -0.25. SQHAVMSGVPFRRLETSYKA showed a growth estimate of under -0.25. LRDAGAAAGLPDPRSYDKLH was tested, and the growth estimate was under -0.25. Work on VAHSSLVNF yielded a growth estimate of under -0.25. With KNNAWPACSTVNCGYRLLAA the growth estimate was under -0.25. With GCPNTIGDVTRHVSTGGRTA the growth estimate was under -0.25. Work on ETGRIVACLKVRSAQWPYWV yielded a growth estimate of under -0.25. SMYCRPTGVVVAGLRQDLLV gave a growth estimate of under -0.25. LNALRLWPCACGGIPVPAVE was tested, and the growth estimate was under -0.25. With YTYAREFPGPAGRRRVPMCR the growth estimate was under -0.25. SCIGSMSVSGVGR showed a growth estimate of under -0.25. GTIPYDYSTCEKAPRHGADS gave a growth estimate of -0.243. LLVSGK gave a growth estimate of under -0.25. In the case of CQRHITMEGQKCVGDF, the growth estimate is reported as under -0.25. IMGPSYAF showed a growth estimate of -0.12. In the case of SHRYSGRVQRGRCLRPSHTV, the growth estimate is reported as under -0.25. VRGSSPRFFGSTAEGRLVWG was tested, and the growth estimate was under -0.25. NEKTHYPPTELASSVESATG gave a growth estimate of under -0.25. Substance SNVDCSHDDEPRSKGFALKR has a growth estimate of under -0.25. For QASGLNRANKLQGHRHRAGL, the growth estimate was -0.155. Substance PVCMMAMSAVGGDHTDPFTI has a growth estimate of under -0.25. With LFSGFRCYIAV the growth estimate was under -0.25. PTTKRGGQ showed a growth estimate of under -0.25. In the case of NNYYGTNNDELGNGLTFGKT, the growth estimate is reported as under -0.25. For ALVPRR, the growth estimate was under -0.25. In the case of SRGRVVRIAGMQKRV, the growth estimate is reported as -0.245. With VGTRNRTV the growth estimate was -0.198. For QGPV, the growth estimate was under -0.25. In the case of EGGSLA, the growth estimate is reported as under -0.25. Substance EVVVWGRPINLPTL has a growth estimate of under -0.25. TDTERAVDDVSYGLGPIIVS gave a growth estimate of under -0.25. For RIQ, the growth estimate was under -0.25. For MQHVFTSIRDLATHRAK, the growth estimate was under -0.25. IFA gave a growth estimate of under -0.25. In the case of LHSGVMICQNGRLGRERWLS, the growth estimate is reported as under -0.25. VPSSPLSYGFHKPKGRIGMV showed a growth estimate of under -0.25. RILYRSYSGLV was tested, and the growth estimate was under -0.25. With MPLRRSSICHIRAESKRGVS the growth estimate was under -0.25. In the case of FLTRSRK, the growth estimate is reported as -0.246. With GQNCSYQSILTKPETRPTIT the growth estimate was under -0.25. For LVDFRDLKAVAM, the growth estimate was under -0.25. ACIHSGR showed a growth estimate of -0.239. Work on ECIHAV yielded a growth estimate of under -0.25. Substance HPRVNSEANCHRRWTEGSVG has a growth estimate of under -0.25. Work on HGGRPYRRVRKLSLHRMGVN yielded a growth estimate of under -0.25. In the case of TMVHHCIVGPSEGRRK, the growth estimate is reported as under -0.25. KRANVQIIPLFGGSTSWTAE showed a growth estimate of under -0.25. With IDNFMGWRLINLAIRSVEEV the growth estimate was under -0.25. ANVLFLLRGI was tested, and the growth estimate was under -0.25. Substance NEGRPTRY has a growth estimate of under -0.25. With LLTASGEVKV the growth estimate was under -0.25. Substance VGFFAQKKCLEIIHYSAFWV has a growth estimate of under -0.25. Substance PIDNPAEARERRSRARAARS has a growth estimate of under -0.25. For SGMV, the growth estimate was under -0.25. Work on TLDGYLEVMSGFTLRVSPQP yielded a growth estimate of under -0.25. KRTTSVS showed a growth estimate of under -0.25. With RKVRYFAAFEDALQEMTWLR the growth estimate was under -0.25. Substance AVIHKDEYTEGRKDDPPGIH has a growth estimate of under -0.25. Substance SSMQAPTSLSQSSE has a growth estimate of under -0.25. With RFVMLVTPHLGGTGNACWVL the growth estimate was under -0.25. Work on SNPARSGSQMSVVINNDDPA yielded a growth estimate of under -0.25. With GQHSLEMVTQVVMML the growth estimate was under -0.25. In the case of HEALLVKLWKEALLGIPDRC, the growth estimate is reported as under -0.25. For DSTFLLPIRPLGVVTLVRIT, the growth estimate was under -0.25. LGTYRVSLTVWGLKVDHASK gave a growth estimate of under -0.25. In the case of IGSGRGPHPSMGVGVKDQA, the growth estimate is reported as under -0.25. In the case of ALSYLKVSGQAYILYRMYLA, the growth estimate is reported as under -0.25. Substance KIY has a growth estimate of under -0.25. In the case of PGSCYRADANVLSHRHVDVA, the growth estimate is reported as under -0.25. EFWGNLCYQSWLGP showed a growth estimate of under -0.25. For LAVFDCRGSVTSKFF, the growth estimate was under -0.25. Work on ATVL yielded a growth estimate of under -0.25. QKLNVT showed a growth estimate of under -0.25. With YPFQTRPDVLRLPAFVQGAS the growth estimate was under -0.25. With HAPIMNL the growth estimate was under -0.25. In the case of TVTLPTWLKIEYG, the growth estimate is reported as under -0.25. Substance SGRMKLVLEWLGGACCSTYR has a growth estimate of under -0.25. GKGVMGRDGRTEVVRYVGAQ gave a growth estimate of under -0.25. For QWES, the growth estimate was under -0.25. For PGSIFFKKLAMHSGWLGNNV, the growth estimate was -0.231. PGTTYEWNSRGMRGGNAFRQ showed a growth estimate of -0.236. In the case of LDRLE, the growth estimate is reported as -0.13. PRPLSPPLATRQKLIV showed a growth estimate of under -0.25. With RASALWPPFLDWHGQVLTTY the growth estimate was under -0.25. Substance YYTDFYG has a growth estimate of under -0.25. ICFQWSQQDAGC gave a growth estimate of under -0.25. With AVFLNCQYISNSLVVGNPQK the growth estimate was under -0.25. Substance GRQEVNQGEQSLDQAMGAYN has a growth estimate of -0.112. GLEFSPFLLFEKI was tested, and the growth estimate was under -0.25. ADPGSWFFK showed a growth estimate of -0.228. Substance IFCVRHPNFIFCGLECRSAC has a growth estimate of under -0.25. MIVTSSNARWLPLTSAVKAR was tested, and the growth estimate was under -0.25. Work on GPTHTNGHDLGTPTKLSFLS yielded a growth estimate of under -0.25. In the case of TRGSEAR, the growth estimate is reported as under -0.25. Work on LCCIGGLGIMGLSVGRSPIR yielded a growth estimate of under -0.25. In the case of VLVGCGFTSGR, the growth estimate is reported as under -0.25. GYAGAL gave a growth estimate of under -0.25. In the case of PQSPVTRRCPSLARRRSFMV, the growth estimate is reported as under -0.25. For LNFWTPEYQPSRVIITIQAC, the growth estimate was under -0.25. NPELASLSLDLKRTSGRKRL was tested, and the growth estimate was under -0.25. Work on PSGQAN yielded a growth estimate of under -0.25. Substance ITRRPSQESEDRPWPSGIKA has a growth estimate of under -0.25. For GHLWD, the growth estimate was under -0.25. With YLPRINAAHLIQASLSTVEV the growth estimate was under -0.25. IPILLLSGTVRHQAS gave a growth estimate of under -0.25. In the case of GNSYPNAPMTNLKLRHSAFR, the growth estimate is reported as under -0.25. With RSLFCNVVEVW the growth estimate was under -0.25. VFEPLSVVTRRAVLQRTVEA showed a growth estimate of under -0.25. For LVVT, the growth estimate was under -0.25. Work on MRSGLLRASQLVRTGSMEGH yielded a growth estimate of under -0.25. VEKSEHGVSATRQAKGRRTT was tested, and the growth estimate was under -0.25. TVSRPDGGRGSPCLTGYMSV gave a growth estimate of under -0.25. In the case of LEGFPSTPGPSIADTMESPR, the growth estimate is reported as under -0.25. With SERRTKACMDRPFCLPMLCA the growth estimate was under -0.25. QVGKSVEVYGGVGIHEVCHP was tested, and the growth estimate was under -0.25. HAQISTL was tested, and the growth estimate was under -0.25. SRAGSTDI gave a growth estimate of under -0.25. KIEERRILTLSS gave a growth estimate of under -0.25. With YLW the growth estimate was under -0.25. LGFSVPTQRNLSIVILTDRL was tested, and the growth estimate was under -0.25. SFSYLRRGCAESDLCCQARP showed a growth estimate of under -0.25. With LGFLR the growth estimate was under -0.25. Substance TGSYGGLLLYTWRLPE has a growth estimate of under -0.25. TIRPE gave a growth estimate of under -0.25. For CGLAWWHRRVVWAVKKLQNW, the growth estimate was under -0.25. Work on TRPQVKSTG yielded a growth estimate of under -0.25. Substance IHLLVESAAERIRERAVF has a growth estimate of under -0.25.
